Results as given in publication doi:10.1101/589580.
These are yes or no findings as the source states them, for the method shown. Some results given as binding are weak or reduced against the parent protein; the word gives no strength. For part of these data: Sequences can lack the tags named with a protein. One block for each binder: values may come before it.

Sequences of proteins named here, by UniProt entry; tags and fusion partners are left off.
UniProt Q07157: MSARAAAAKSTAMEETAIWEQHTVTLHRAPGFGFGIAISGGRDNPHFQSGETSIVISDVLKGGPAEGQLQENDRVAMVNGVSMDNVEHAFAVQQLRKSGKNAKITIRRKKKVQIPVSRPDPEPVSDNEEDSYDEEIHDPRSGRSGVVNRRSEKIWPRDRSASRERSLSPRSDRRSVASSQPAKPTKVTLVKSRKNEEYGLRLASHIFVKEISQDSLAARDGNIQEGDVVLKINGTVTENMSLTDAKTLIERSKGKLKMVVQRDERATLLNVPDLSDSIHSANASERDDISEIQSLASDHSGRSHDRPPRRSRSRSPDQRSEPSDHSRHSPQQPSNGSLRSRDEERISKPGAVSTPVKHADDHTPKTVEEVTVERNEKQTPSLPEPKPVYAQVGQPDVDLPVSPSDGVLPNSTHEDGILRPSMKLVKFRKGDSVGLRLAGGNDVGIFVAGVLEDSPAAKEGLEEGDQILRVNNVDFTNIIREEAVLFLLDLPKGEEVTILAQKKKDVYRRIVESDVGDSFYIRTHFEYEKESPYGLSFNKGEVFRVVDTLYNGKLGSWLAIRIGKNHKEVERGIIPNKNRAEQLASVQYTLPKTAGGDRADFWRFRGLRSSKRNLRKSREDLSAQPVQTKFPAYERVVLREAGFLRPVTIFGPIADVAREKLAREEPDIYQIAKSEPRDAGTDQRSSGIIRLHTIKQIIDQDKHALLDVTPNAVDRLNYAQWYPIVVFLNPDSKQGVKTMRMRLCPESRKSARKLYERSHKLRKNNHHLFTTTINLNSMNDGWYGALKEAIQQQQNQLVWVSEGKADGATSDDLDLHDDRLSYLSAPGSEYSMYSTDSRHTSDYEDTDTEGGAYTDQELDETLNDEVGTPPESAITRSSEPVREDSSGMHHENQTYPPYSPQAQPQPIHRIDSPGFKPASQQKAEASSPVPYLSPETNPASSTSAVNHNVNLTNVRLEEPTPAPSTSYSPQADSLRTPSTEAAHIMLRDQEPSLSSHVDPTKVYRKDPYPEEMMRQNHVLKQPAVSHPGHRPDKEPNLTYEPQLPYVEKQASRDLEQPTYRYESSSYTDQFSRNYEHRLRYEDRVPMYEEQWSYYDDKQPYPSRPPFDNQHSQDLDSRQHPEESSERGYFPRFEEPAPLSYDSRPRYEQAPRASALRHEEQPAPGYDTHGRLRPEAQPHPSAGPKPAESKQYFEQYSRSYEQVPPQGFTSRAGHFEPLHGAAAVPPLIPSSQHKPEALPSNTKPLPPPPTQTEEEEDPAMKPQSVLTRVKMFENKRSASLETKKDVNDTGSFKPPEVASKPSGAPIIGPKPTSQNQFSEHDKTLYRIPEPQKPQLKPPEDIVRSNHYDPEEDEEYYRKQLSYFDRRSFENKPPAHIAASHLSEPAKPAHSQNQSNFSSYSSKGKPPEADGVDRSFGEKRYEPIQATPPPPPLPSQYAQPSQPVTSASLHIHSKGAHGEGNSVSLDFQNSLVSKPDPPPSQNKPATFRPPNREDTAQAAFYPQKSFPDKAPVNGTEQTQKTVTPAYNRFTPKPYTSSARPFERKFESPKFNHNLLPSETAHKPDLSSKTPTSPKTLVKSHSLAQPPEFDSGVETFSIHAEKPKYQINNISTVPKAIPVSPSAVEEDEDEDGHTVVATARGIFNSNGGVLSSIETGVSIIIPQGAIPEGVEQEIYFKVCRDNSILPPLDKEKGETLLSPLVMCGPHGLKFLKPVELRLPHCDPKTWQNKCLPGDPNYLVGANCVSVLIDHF

How the values were obtained:
Experiment in all cases: client partitioning into phase-separated droplets
[1] = molecular target: full-length ZO1 with C-terminal mEGFP (UniProt Q07157)
[2] = molecular target: T1, full-length ZO3 with C-terminal mEGFP, O95049; conditions: remark: other sources report otherwise
T1 chain: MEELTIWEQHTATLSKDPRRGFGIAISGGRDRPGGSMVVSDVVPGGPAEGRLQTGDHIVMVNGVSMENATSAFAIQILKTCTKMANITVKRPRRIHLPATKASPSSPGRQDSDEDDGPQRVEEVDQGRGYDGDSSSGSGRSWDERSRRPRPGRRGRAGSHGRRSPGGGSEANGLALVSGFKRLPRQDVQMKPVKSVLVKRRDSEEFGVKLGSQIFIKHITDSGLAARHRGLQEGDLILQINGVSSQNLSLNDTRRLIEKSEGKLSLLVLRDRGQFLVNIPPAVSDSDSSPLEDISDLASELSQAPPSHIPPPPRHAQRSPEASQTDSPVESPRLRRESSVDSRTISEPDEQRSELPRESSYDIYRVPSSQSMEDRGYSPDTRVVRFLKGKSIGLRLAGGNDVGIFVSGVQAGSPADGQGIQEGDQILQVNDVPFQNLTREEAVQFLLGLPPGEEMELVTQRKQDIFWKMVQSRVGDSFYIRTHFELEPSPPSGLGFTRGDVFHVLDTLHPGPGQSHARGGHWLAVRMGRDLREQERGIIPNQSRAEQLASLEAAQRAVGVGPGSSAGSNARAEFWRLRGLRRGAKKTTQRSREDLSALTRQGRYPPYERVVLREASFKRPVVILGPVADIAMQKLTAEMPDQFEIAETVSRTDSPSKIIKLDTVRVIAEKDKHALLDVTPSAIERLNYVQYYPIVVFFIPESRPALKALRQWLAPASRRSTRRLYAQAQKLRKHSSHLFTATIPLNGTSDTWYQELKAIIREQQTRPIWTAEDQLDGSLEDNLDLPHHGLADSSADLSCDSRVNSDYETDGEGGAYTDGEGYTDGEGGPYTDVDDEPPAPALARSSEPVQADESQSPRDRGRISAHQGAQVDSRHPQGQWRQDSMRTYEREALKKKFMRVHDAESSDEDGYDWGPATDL

[3] = molecular target: T2, full-length ZO2 with C-terminal mEGFP, Q9UDY2; conditions: remark: other sources report otherwise
T2 chain: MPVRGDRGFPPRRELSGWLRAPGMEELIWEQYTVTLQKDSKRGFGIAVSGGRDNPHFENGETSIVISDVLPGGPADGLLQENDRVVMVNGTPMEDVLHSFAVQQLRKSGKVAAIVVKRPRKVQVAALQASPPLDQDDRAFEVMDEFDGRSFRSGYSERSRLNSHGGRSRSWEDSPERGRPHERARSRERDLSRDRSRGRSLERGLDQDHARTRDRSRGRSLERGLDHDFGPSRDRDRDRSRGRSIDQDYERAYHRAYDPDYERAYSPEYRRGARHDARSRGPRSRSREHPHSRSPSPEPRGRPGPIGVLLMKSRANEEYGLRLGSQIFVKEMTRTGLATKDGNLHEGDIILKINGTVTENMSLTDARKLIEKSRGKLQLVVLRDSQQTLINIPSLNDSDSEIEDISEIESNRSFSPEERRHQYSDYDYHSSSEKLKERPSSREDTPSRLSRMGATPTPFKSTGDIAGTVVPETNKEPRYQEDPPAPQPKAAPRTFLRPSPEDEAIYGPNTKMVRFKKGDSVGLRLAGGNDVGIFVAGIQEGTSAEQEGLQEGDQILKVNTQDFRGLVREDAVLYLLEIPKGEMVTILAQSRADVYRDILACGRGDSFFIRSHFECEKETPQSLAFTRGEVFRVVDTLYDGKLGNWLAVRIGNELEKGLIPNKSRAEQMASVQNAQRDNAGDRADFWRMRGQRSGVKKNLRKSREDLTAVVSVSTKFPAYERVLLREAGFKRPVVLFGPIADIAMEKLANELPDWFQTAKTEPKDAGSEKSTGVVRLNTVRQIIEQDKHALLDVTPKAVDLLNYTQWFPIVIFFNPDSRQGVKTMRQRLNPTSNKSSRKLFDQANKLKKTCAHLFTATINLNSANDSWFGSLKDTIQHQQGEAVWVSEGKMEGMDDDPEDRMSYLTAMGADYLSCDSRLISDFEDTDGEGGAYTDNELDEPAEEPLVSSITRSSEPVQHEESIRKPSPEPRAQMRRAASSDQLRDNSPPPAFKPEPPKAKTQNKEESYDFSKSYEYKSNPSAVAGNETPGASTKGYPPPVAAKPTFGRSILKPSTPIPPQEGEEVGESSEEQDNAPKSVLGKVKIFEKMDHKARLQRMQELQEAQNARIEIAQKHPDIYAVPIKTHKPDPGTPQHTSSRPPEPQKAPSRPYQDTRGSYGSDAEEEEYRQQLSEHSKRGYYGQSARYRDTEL

binding [1]: binds
B1: mCherry-labelled ZO2 (client) (protein, UniProt Q9UDY2 1-1190)
chain: MPVRGDRGFPPRRELSGWLRAPGMEELIWEQYTVTLQKDSKRGFGIAVSGGRDNPHFENGETSIVISDVLPGGPADGLLQENDRVVMVNGTPMEDVLHSFAVQQLRKSGKVAAIVVKRPRKVQVAALQASPPLDQDDRAFEVMDEFDGRSFRSGYSERSRLNSHGGRSRSWEDSPERGRPHERARSRERDLSRDRSRGRSLERGLDQDHARTRDRSRGRSLERGLDHDFGPSRDRDRDRSRGRSIDQDYERAYHRAYDPDYERAYSPEYRRGARHDARSRGPRSRSREHPHSRSPSPEPRGRPGPIGVLLMKSRANEEYGLRLGSQIFVKEMTRTGLATKDGNLHEGDIILKINGTVTENMSLTDARKLIEKSRGKLQLVVLRDSQQTLINIPSLNDSDSEIEDISEIESNRSFSPEERRHQYSDYDYHSSSEKLKERPSSREDTPSRLSRMGATPTPFKSTGDIAGTVVPETNKEPRYQEDPPAPQPKAAPRTFLRPSPEDEAIYGPNTKMVRFKKGDSVGLRLAGGNDVGIFVAGIQEGTSAEQEGLQEGDQILKVNTQDFRGLVREDAVLYLLEIPKGEMVTILAQSRADVYRDILACGRGDSFFIRSHFECEKETPQSLAFTRGEVFRVVDTLYDGKLGNWLAVRIGNELEKGLIPNKSRAEQMASVQNAQRDNAGDRADFWRMRGQRSGVKKNLRKSREDLTAVVSVSTKFPAYERVLLREAGFKRPVVLFGPIADIAMEKLANELPDWFQTAKTEPKDAGSEKSTGVVRLNTVRQIIEQDKHALLDVTPKAVDLLNYTQWFPIVIFFNPDSRQGVKTMRQRLNPTSNKSSRKLFDQANKLKKTCAHLFTATINLNSANDSWFGSLKDTIQHQQGEAVWVSEGKMEGMDDDPEDRMSYLTAMGADYLSCDSRLISDFEDTDGEGGAYTDNELDEPAEEPLVSSITRSSEPVQHEESIRKPSPEPRAQMRRAASSDQLRDNSPPPAFKPEPPKAKTQNKEESYDFSKSYEYKSNPSAVAGNETPGASTKGYPPPVAAKPTFGRSILKPSTPIPPQEGEEVGESSEEQDNAPKSVLGKVKIFEKMDHKARLQRMQELQEAQNARIEIAQKHPDIYAVPIKTHKPDPGTPQHTSSRPPEPQKAPSRPYQDTRGSYGSDAEEEEYRQQLSEHSKRGYYGQSARYRDTEL

binding [2]: no binding
B2: mCherry-labelled ZO2 (client), Q9UDY2 1-1190 (protein)
chain: MPVRGDRGFPPRRELSGWLRAPGMEELIWEQYTVTLQKDSKRGFGIAVSGGRDNPHFENGETSIVISDVLPGGPADGLLQENDRVVMVNGTPMEDVLHSFAVQQLRKSGKVAAIVVKRPRKVQVAALQASPPLDQDDRAFEVMDEFDGRSFRSGYSERSRLNSHGGRSRSWEDSPERGRPHERARSRERDLSRDRSRGRSLERGLDQDHARTRDRSRGRSLERGLDHDFGPSRDRDRDRSRGRSIDQDYERAYHRAYDPDYERAYSPEYRRGARHDARSRGPRSRSREHPHSRSPSPEPRGRPGPIGVLLMKSRANEEYGLRLGSQIFVKEMTRTGLATKDGNLHEGDIILKINGTVTENMSLTDARKLIEKSRGKLQLVVLRDSQQTLINIPSLNDSDSEIEDISEIESNRSFSPEERRHQYSDYDYHSSSEKLKERPSSREDTPSRLSRMGATPTPFKSTGDIAGTVVPETNKEPRYQEDPPAPQPKAAPRTFLRPSPEDEAIYGPNTKMVRFKKGDSVGLRLAGGNDVGIFVAGIQEGTSAEQEGLQEGDQILKVNTQDFRGLVREDAVLYLLEIPKGEMVTILAQSRADVYRDILACGRGDSFFIRSHFECEKETPQSLAFTRGEVFRVVDTLYDGKLGNWLAVRIGNELEKGLIPNKSRAEQMASVQNAQRDNAGDRADFWRMRGQRSGVKKNLRKSREDLTAVVSVSTKFPAYERVLLREAGFKRPVVLFGPIADIAMEKLANELPDWFQTAKTEPKDAGSEKSTGVVRLNTVRQIIEQDKHALLDVTPKAVDLLNYTQWFPIVIFFNPDSRQGVKTMRQRLNPTSNKSSRKLFDQANKLKKTCAHLFTATINLNSANDSWFGSLKDTIQHQQGEAVWVSEGKMEGMDDDPEDRMSYLTAMGADYLSCDSRLISDFEDTDGEGGAYTDNELDEPAEEPLVSSITRSSEPVQHEESIRKPSPEPRAQMRRAASSDQLRDNSPPPAFKPEPPKAKTQNKEESYDFSKSYEYKSNPSAVAGNETPGASTKGYPPPVAAKPTFGRSILKPSTPIPPQEGEEVGESSEEQDNAPKSVLGKVKIFEKMDHKARLQRMQELQEAQNARIEIAQKHPDIYAVPIKTHKPDPGTPQHTSSRPPEPQKAPSRPYQDTRGSYGSDAEEEEYRQQLSEHSKRGYYGQSARYRDTEL

binding [3]: no binding
B3: mCherry-labelled ZO3 (client), O95049 1-919 (protein)
chain: MEELTIWEQHTATLSKDPRRGFGIAISGGRDRPGGSMVVSDVVPGGPAEGRLQTGDHIVMVNGVSMENATSAFAIQILKTCTKMANITVKRPRRIHLPATKASPSSPGRQDSDEDDGPQRVEEVDQGRGYDGDSSSGSGRSWDERSRRPRPGRRGRAGSHGRRSPGGGSEANGLALVSGFKRLPRQDVQMKPVKSVLVKRRDSEEFGVKLGSQIFIKHITDSGLAARHRGLQEGDLILQINGVSSQNLSLNDTRRLIEKSEGKLSLLVLRDRGQFLVNIPPAVSDSDSSPLEDISDLASELSQAPPSHIPPPPRHAQRSPEASQTDSPVESPRLRRESSVDSRTISEPDEQRSELPRESSYDIYRVPSSQSMEDRGYSPDTRVVRFLKGKSIGLRLAGGNDVGIFVSGVQAGSPADGQGIQEGDQILQVNDVPFQNLTREEAVQFLLGLPPGEEMELVTQRKQDIFWKMVQSRVGDSFYIRTHFELEPSPPSGLGFTRGDVFHVLDTLHPGPGQSHARGGHWLAVRMGRDLREQERGIIPNQSRAEQLASLEAAQRAVGVGPGSSAGSNARAEFWRLRGLRRGAKKTTQRSREDLSALTRQGRYPPYERVVLREASFKRPVVILGPVADIAMQKLTAEMPDQFEIAETVSRTDSPSKIIKLDTVRVIAEKDKHALLDVTPSAIERLNYVQYYPIVVFFIPESRPALKALRQWLAPASRRSTRRLYAQAQKLRKHSSHLFTATIPLNGTSDTWYQELKAIIREQQTRPIWTAEDQLDGSLEDNLDLPHHGLADSSADLSCDSRVNSDYETDGEGGAYTDGEGYTDGEGGPYTDVDDEPPAPALARSSEPVQADESQSPRDRGRISAHQGAQVDSRHPQGQWRQDSMRTYEREALKKKFMRVHDAESSDEDGYDWGPATDL
